Results are given in words; binding and its absence hold for the method and conditions named. In cells and extracts the contact can be indirect. Some entries that bind do so weakly or less than the wild type.

Chains of the proteins cited; added tags and fusions are not shown. Lines headed by an entry give the natural chain unless they say otherwise; changes in a name come on top. Residues count along the entry.
UniProt P13473, residues 29-410: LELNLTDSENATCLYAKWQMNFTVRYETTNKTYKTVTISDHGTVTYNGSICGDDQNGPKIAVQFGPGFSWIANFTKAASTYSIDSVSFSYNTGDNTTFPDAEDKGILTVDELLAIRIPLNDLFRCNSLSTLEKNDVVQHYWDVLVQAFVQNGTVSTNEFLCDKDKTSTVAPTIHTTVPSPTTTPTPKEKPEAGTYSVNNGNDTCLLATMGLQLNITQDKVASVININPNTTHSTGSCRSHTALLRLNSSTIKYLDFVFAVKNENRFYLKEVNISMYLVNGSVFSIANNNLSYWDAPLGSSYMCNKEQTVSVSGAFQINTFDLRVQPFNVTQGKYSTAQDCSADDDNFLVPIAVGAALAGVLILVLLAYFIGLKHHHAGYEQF
UniProt P49815: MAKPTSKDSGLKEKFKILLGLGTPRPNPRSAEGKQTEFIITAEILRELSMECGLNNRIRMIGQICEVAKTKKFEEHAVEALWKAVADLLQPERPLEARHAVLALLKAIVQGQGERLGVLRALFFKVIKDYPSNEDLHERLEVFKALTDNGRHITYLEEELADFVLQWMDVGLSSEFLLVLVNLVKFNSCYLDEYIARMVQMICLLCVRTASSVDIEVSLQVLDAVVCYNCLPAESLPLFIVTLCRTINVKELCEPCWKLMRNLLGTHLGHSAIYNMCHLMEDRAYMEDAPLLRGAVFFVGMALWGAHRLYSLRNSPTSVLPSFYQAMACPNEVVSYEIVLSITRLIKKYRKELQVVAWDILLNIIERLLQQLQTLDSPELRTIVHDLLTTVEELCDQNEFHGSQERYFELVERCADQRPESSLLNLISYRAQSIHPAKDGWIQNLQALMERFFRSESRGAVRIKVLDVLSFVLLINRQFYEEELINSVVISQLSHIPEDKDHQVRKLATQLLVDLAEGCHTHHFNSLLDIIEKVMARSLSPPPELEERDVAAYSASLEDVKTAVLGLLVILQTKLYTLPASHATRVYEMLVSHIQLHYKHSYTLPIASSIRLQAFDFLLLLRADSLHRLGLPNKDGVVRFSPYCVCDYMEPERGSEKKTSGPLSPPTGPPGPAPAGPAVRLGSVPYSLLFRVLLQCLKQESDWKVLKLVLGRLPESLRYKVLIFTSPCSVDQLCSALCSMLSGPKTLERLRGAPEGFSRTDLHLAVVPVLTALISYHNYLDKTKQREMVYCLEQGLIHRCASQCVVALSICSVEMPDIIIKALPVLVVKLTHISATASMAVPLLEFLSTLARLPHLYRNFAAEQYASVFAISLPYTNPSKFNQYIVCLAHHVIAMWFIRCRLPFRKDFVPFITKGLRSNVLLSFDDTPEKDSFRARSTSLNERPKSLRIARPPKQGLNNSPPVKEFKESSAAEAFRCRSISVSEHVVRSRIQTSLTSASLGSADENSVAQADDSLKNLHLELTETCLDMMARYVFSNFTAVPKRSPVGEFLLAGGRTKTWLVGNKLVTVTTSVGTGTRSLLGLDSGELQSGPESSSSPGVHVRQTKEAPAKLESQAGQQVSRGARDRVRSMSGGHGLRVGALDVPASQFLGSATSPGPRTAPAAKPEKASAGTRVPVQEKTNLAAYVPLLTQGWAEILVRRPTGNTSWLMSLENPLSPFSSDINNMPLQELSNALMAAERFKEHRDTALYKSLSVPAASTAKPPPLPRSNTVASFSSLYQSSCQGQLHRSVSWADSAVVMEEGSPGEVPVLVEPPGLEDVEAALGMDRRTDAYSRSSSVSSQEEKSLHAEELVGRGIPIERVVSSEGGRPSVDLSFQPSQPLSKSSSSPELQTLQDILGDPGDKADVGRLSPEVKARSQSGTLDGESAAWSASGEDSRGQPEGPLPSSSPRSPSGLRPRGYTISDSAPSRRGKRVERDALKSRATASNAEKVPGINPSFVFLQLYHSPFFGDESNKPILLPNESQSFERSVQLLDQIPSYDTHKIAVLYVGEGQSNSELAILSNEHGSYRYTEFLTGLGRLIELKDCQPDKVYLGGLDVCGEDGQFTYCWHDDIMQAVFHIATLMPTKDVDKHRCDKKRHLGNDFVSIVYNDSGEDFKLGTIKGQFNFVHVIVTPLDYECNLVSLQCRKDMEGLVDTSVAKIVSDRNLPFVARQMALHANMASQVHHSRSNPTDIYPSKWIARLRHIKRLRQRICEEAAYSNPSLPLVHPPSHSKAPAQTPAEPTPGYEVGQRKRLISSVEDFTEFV
UniProt Q13283: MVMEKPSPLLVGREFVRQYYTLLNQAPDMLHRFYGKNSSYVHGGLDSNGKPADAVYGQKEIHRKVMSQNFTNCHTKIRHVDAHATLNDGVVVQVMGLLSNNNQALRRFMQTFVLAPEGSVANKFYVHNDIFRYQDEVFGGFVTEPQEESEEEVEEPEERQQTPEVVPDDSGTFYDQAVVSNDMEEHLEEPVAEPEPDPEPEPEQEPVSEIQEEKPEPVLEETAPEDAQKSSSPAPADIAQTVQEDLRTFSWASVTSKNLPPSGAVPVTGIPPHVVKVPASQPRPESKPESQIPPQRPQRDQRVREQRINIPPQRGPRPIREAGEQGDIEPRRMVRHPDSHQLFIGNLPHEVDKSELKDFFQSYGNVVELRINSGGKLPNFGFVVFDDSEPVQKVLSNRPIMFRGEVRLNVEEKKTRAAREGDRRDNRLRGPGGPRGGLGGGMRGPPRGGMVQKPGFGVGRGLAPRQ
UniProt P49816: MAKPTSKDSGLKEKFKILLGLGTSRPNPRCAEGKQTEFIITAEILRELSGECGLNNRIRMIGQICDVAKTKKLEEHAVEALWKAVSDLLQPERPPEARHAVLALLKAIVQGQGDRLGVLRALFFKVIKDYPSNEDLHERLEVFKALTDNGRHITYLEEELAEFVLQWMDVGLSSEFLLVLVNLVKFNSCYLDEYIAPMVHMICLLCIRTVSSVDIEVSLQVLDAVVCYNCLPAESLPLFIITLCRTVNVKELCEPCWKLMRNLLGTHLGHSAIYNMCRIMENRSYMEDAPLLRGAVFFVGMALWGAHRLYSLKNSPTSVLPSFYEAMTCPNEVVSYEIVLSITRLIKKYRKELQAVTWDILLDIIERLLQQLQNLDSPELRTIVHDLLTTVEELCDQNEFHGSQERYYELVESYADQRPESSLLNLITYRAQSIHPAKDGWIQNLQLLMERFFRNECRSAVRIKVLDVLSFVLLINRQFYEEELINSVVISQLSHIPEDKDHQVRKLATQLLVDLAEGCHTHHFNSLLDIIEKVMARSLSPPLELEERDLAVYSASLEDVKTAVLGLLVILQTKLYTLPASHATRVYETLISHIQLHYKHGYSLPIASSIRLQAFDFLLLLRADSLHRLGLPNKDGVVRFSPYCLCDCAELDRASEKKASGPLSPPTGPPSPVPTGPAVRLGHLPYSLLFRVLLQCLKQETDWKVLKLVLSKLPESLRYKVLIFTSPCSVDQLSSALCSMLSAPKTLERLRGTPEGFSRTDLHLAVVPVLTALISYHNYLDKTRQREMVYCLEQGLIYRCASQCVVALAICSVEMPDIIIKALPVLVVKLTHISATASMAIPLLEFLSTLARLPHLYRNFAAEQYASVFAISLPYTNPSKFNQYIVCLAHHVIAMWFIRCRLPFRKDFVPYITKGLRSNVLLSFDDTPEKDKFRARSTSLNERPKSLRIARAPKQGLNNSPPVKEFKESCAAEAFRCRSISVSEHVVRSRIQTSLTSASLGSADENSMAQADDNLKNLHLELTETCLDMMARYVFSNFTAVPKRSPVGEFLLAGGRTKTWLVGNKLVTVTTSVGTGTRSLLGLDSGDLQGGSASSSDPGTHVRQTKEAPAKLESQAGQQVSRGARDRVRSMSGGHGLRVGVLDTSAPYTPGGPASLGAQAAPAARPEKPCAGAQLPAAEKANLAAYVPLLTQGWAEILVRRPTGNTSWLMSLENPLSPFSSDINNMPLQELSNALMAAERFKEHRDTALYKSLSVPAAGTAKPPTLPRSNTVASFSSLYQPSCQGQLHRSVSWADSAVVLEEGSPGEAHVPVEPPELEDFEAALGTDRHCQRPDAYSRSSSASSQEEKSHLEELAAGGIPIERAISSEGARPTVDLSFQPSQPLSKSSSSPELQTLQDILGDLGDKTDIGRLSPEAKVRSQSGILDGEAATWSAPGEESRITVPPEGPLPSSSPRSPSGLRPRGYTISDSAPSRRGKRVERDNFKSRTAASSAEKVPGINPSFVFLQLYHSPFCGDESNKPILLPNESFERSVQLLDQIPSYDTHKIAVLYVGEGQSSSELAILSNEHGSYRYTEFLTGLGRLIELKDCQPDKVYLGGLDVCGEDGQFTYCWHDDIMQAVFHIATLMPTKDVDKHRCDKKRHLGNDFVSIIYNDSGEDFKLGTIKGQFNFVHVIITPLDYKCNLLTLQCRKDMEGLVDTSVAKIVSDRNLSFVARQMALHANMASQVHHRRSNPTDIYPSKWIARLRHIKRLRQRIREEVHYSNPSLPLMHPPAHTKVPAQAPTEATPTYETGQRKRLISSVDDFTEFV

The results in this text go back to article doi:10.1101/2020.04.16.044081.

Experiment [1] addresses N-terminal mLumin fragment fused to LAMP2 (pGW-HA-LN151-LAMP2) (human) (UniProt P13473). Briefly: split reporter.
Experiment [2] has as its target N-terminal mLumin fragment fused to TSC2 (pGW-HA-LN151-TSC2) (human) (UniProt P49815). Put plainly: split reporter.
For experiment [3], the target named is TSC2-GFP (full length) (human) (UniProt P49815). Briefly: co-IP.
The target of experiment [4] is TSC2 (tuberin), endogenous human (human (endogenous in MCF-7, MDA-MB-231, HEK293T)) (UniProt P49815). Put plainly: co-IP.
Experiment [5] has the same target. Briefly: proximity ligation.
Experiment [6] shares this target. Briefly: co-IP. This is another data set of the same source.
For experiment [7], the target named is T1, TSC1, endogenous, rat brain (rat (endogenous in brain tissue)) (UniProt Q9Z136).
T1 sequence: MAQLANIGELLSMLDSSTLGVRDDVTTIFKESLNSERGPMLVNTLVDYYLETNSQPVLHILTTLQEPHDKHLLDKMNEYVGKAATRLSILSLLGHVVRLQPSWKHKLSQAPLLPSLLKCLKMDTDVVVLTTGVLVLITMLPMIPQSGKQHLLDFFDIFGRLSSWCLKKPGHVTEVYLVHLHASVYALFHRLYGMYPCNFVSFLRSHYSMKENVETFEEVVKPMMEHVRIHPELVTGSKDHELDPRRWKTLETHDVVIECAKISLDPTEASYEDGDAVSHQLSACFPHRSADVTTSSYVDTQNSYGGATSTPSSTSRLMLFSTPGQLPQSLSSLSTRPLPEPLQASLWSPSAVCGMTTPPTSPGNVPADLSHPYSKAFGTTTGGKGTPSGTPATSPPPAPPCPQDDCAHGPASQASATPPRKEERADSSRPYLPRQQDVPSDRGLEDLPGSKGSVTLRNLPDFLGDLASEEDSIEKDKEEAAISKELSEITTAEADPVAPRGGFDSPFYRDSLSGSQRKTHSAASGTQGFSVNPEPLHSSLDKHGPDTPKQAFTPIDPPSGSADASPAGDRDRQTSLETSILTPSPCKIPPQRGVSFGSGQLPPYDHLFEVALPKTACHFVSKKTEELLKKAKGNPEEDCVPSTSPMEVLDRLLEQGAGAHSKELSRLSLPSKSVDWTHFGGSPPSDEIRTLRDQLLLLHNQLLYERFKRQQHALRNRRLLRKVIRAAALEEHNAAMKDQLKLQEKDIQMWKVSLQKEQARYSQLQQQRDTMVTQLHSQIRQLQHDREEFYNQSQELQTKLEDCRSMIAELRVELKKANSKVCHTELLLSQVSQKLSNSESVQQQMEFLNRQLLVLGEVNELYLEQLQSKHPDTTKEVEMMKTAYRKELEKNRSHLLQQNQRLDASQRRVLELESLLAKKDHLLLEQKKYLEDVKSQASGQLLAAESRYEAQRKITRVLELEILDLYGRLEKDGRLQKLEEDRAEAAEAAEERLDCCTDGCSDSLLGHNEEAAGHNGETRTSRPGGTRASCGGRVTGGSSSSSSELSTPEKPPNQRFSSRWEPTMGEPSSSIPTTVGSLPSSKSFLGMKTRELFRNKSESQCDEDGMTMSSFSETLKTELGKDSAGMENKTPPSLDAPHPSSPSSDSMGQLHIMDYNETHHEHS
Briefly: co-IP.

As to “G3BP1 fused to a C-terminal mLumin fragment (pGW-MYC-LC151-G3BP1) (from UniProt Q13283 1-466)”, the binding entry in experiment [1] and in experiment [2] was “binds” in each case. In the case of “G3BP1_(1-182)-MYC (from UniProt Q13283 1-182) (domain or fragment)”, the binding result in experiment [3] is recorded as “no binding”. “G3BP1_(183-332)-MYC (from UniProt Q13283 183-332) (domain or fragment)”: the binding entry in experiment [3] was “binds weakly”.

Take “G3BP1_(333-466)-MYC (from UniProt Q13283 333-466) (domain or fragment)”: the binding entry in experiment [3] was “binds”. As for “Ras GTPase-activating protein-binding protein 1 (G3BP1), endogenous human (from UniProt Q13283 1-466)”, the binding result in experiment [4], in experiment [5] and in experiment [6] was “binds” each time. “TSC2, endogenous, rat brain (from UniProt P49816 1-1809)”: the binding result in experiment [7] is “binds”. “full length G3BP1_(1-466)-MYC (from UniProt Q13283 1-466)”: the binding entry in experiment [3] is “binds”.
